At least one compound was matched to its structure with a doubt left.
System: H. pylori ATCC43504
Experiment: Appearance frequency of natural resistant mutation
Format: cell-based
Conditions: all tested concentrations 0.30-1.20 μg/ml
Text: FIG. 3. Illustrates the anti-H. pylori effects of the compound NE-2001 at various pH values. The appearance frequency of natural resistant mutations against NE-2001 was examined (Table 4).

`Cc1ccc(COC(=O)c2ccc(-c3ccc(OC(=O)c4ccc(CNC(=N)N)cc4)cc3)cc2)cc1` [NE-2001, 4-(4-methylbenzyl)-4′-[guanidinomethylbenzoyloxy] biphenyl-4-carboxylate] was tested, and the “appearance of natural resistant bacteria” value was “no natural resistant bacteria appeared”.
